Reference: patent US20250388687A1
These are yes or no findings as the source states them, for the method shown. Some entries that bind do so weakly or less than the wild type. For some assays here: Where a sequence is shown, tags or fusion partners need not be part of it. Blank lines part the entries; values can stand above or below the binder they belong to.

The chains behind the UniProt entries cited, without tags or fusion partners. Residues count along the entry.
UniProt P32927, residues 17-443: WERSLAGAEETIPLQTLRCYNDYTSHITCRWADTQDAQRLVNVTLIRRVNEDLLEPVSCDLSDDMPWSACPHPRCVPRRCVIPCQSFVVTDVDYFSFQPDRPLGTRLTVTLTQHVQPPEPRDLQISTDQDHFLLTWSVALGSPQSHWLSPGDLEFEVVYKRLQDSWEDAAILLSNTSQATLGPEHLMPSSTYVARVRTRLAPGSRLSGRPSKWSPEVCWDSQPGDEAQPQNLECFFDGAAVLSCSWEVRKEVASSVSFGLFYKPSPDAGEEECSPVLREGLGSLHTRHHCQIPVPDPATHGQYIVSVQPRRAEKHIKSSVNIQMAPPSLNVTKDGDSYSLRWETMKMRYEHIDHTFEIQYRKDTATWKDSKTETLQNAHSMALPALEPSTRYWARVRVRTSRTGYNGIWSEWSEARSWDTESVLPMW

Assays:
[1] = target: soluble hetero-EPOR (EPOR-CD131-Fc) (human) (UniProt P19235+P32927); experiment: BLI (Octet), supernatant antibody captured on anti-mouse Fc biosensors, 30 nM soluble receptor Fc fusion
[2] = target: hCD131-Fc (IME021, in house) (human) (UniProt P32927); experiment: B-cell sorting with labelled hEPOR-Fc and hCD131-Fc, double-positive population
[3] = target: recombinant hEPOR-Fc (Sino Biological, Cat #10707-H02H) (human) (UniProt P19235); experiment: as above
[4] = target: hCD131-Fc (IME021) (human) (UniProt P32927); experiment: B cells sorted with labelled hEPOR-Fc and hCD131-Fc, then sequenced
[5] = target: T1, recombinant hEPOR-Fc (human) (UniProt P19235); experiment: as above
T1 sequence (looked up): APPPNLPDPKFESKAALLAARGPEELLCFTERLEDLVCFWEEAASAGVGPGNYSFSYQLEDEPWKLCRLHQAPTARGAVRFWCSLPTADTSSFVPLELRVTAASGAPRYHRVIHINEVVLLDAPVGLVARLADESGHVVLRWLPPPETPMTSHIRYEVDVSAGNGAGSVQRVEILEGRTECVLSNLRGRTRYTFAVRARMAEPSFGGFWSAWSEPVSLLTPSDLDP

binding [1]: binds
B1: hybridoma clone M2 (antibody, V domains shown)
VH: QVQLVESGGGLVKPGGSLRLSCAASGFTFSDSYMSWIRQAPGKGLEWVSYISNSGSYMYYADSVKGRFTISRDNAKNSLYLQMNNLRAEDTAVYYCARDKLGIGDYWGQGTLVTVSS
VL: DIQMTQSPSSLSASVGDRVTITCRASQGIRNDLGWFQQKPGKAPKRLIYAASRLQSGVPSRFSGSGSGTEFTLTISSLQPEDFATYCCLQHHTYPPTFGQGTKVEIK

binding [2]: binds
binding [3]: binds
B2: clonotype 379 (EPOR/CD131 binders, Table 8) (antibody, V domains shown)
VH: QVQLVQSGAEVKKPGASMKVSCKASGYTFITYGITWVRQAPGQGLEWMGWISAYNGNANYAQKVQDRVTMTTDTSTSTAYMELRSLRSDDTAVYYCARAPGGSCGSTNCYKWNYDPYYFDYWGQGTLVTVSS
VL: RSALTQPASVSGSPGQSITISCTGTSSDVGGYNYVSWYHQHPGKAPKLMIYDVSKRPSGVSNRFSGFKSGNTASLTISGLQAEDEADYFCCSYAGSSTLVFGGGTKLTVL

binding [4]: binds
binding [5]: binds
B3: EPOR/CD131 binder, HC SEQ ID NO 1737 / LC SEQ ID NO 1873 (antibody, V domains shown)
VH: B2 VH
VL: B2 VL
